# Data from the supplement of paper PMC12819154, “High-throughput peptide-centric local stability assay extends protein–ligand identification to membrane proteins, tissues and bacteria” (Nature Structural & Molecular Biology, 2025).
# Chains of the proteins cited; added tags and fusions are not shown. Lines headed by an entry give the natural chain unless they say otherwise; changes in a name come on top.
# UniProt P39176: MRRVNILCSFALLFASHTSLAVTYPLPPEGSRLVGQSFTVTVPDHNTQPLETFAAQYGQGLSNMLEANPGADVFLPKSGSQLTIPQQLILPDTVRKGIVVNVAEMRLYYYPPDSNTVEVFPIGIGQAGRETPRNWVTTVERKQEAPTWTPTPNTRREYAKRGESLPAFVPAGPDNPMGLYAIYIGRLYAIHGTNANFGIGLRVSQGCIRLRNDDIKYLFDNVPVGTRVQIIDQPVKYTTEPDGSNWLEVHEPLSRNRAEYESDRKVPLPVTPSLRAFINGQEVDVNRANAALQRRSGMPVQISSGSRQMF
# UniProt P37639: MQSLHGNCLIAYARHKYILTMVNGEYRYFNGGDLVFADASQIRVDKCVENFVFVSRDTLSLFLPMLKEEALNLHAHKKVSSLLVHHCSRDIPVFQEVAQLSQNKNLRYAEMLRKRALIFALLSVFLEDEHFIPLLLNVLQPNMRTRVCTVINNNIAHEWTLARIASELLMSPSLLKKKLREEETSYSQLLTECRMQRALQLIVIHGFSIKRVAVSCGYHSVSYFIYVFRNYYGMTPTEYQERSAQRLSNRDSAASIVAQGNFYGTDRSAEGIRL
# UniProt P37613: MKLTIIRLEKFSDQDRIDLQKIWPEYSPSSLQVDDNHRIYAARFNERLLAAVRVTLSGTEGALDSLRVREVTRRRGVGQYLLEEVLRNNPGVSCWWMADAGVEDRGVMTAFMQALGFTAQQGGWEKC
# UniProt P39285: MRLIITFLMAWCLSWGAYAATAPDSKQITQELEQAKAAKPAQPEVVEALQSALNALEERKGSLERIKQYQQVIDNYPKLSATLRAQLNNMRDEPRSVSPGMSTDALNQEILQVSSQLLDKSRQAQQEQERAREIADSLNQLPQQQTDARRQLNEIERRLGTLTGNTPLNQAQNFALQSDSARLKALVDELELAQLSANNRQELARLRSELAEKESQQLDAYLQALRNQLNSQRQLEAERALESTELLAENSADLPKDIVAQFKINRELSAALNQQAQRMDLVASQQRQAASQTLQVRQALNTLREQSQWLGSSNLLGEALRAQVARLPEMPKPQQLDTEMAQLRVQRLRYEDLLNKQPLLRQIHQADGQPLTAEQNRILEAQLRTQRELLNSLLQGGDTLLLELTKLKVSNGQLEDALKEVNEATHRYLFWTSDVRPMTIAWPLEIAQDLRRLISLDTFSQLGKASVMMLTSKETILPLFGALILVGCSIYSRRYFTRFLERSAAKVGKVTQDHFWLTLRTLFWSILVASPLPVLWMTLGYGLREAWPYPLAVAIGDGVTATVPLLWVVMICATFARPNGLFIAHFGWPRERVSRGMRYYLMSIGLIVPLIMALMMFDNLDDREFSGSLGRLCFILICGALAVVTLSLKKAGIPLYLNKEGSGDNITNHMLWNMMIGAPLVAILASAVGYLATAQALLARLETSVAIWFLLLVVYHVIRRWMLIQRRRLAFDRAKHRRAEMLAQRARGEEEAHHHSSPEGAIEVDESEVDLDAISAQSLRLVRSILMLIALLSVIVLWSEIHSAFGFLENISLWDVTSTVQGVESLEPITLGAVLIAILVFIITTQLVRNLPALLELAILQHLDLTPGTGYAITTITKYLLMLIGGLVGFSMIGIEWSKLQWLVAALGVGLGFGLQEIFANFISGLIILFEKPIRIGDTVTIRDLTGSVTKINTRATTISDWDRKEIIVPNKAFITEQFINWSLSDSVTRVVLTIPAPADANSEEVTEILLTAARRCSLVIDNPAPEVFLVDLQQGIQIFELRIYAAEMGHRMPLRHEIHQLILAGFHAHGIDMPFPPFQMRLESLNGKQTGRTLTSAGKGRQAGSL
# UniProt P37127: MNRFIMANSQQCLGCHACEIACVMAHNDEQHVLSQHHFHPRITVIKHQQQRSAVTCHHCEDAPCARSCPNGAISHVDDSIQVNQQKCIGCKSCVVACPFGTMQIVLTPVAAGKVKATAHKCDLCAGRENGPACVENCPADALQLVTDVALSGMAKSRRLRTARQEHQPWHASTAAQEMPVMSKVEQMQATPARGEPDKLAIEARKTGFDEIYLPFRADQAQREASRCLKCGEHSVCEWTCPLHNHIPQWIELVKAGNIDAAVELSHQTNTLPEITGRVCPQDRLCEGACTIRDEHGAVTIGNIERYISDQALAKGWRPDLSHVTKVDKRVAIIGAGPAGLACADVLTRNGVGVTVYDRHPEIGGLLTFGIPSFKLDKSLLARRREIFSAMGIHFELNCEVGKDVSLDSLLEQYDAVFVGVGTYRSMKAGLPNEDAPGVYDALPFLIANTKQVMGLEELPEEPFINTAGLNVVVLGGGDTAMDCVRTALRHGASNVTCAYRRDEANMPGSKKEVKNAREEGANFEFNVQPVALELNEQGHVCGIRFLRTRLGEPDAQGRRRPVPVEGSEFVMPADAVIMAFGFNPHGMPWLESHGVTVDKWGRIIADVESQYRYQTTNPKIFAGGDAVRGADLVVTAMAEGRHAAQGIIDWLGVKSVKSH
# UniProt P37645: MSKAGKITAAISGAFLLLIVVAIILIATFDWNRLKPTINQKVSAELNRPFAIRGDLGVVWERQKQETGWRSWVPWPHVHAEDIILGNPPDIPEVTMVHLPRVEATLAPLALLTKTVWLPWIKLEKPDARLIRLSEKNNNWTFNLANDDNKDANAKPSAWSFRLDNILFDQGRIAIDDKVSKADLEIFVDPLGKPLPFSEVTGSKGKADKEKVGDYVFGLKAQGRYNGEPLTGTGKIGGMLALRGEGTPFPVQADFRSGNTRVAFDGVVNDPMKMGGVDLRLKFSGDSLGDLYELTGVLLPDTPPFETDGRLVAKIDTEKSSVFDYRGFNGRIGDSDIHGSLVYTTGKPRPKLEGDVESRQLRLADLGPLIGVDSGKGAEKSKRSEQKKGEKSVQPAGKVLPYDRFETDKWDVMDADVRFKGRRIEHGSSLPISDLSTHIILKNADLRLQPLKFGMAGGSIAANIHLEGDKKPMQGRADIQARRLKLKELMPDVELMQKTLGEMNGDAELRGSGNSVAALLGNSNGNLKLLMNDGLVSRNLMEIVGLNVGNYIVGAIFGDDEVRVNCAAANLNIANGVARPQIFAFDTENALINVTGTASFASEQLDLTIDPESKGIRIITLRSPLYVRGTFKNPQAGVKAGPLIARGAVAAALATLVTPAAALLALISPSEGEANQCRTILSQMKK
# UniProt P37330: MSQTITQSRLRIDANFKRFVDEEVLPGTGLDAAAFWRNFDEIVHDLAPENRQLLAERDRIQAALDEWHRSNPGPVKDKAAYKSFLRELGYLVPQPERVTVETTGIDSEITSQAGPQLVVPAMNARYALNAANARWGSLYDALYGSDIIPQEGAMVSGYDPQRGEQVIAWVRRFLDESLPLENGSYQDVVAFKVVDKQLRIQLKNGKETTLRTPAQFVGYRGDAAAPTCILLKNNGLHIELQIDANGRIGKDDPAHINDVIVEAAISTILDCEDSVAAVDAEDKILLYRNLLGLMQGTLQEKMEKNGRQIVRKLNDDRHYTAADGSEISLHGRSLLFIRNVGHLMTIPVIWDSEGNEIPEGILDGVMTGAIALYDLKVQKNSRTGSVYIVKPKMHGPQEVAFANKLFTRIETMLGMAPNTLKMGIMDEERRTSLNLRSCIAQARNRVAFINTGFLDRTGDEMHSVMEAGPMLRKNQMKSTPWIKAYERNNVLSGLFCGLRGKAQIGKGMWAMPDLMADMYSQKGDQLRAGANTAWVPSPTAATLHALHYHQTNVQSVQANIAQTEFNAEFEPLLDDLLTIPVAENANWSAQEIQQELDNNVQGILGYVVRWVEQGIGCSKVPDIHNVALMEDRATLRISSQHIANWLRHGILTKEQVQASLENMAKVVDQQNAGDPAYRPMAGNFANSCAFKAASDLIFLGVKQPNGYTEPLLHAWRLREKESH
# UniProt P42589: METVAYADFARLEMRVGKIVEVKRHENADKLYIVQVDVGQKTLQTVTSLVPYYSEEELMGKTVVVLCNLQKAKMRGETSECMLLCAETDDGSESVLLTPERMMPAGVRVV
# UniProt P37326: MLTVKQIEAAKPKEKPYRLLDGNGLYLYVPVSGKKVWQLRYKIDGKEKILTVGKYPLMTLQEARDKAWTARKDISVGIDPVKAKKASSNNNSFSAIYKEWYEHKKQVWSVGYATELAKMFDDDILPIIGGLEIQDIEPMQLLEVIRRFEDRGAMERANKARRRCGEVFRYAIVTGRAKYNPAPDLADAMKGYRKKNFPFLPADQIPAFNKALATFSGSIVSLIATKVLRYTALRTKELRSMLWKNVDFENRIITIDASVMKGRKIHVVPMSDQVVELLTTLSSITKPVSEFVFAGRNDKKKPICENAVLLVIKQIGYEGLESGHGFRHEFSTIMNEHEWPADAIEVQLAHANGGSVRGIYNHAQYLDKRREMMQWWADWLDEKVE
# UniProt P39265: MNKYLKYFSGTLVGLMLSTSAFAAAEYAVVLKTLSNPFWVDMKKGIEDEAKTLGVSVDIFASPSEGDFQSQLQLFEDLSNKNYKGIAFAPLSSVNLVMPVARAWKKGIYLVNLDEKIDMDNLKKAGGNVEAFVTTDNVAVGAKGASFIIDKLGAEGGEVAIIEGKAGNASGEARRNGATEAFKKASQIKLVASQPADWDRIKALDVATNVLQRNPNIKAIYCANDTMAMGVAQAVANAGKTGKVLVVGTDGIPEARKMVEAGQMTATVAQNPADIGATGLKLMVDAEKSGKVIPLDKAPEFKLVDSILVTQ
# UniProt P36881: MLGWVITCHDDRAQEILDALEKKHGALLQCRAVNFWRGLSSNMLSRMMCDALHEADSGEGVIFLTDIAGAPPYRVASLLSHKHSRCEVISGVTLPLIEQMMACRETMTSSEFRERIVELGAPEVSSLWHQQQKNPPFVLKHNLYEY
# The other results are listed elsewhere or left out. Most entries show no effect beyond the scatter of the controls.
# Compound: CC1(C)S[C@@H]2[C@H](NC(=O)[C@H](N)c3ccccc3)C(=O)N2[C@H]1C(=O)O [ampicillin]
# Assay: log2 fold change of tryptic peptide abundance, ligand vs vehicle (limited proteolysis) (log2 ratio); higher = more trypsin-susceptible (destabilized)
# Settings: ligand concentration: 10 uM; sample: E. coli crude lysate
row,Target,log2 fold change
1,"UniProt P39176 (peptide sequence: KQEAPTWTPTPNTRR, peptide start residue: 142)",-0.389
2,"UniProt P37639 (peptide sequence: IASELLMSPSLLKK, peptide start residue: 164)",-0.466
3,"UniProt P37613 (peptide sequence: LEKFSDQDRIDLQK, peptide start residue: 8)",-0.423
4,"UniProt P39285 (peptide sequence: QAQQEQER, peptide start residue: 123)",1.11
5,"UniProt P37127 (peptide sequence: VEQMQATPARGEPDKLAIEAR, peptide start residue: 184)",-0.702
6,"UniProt P37645 (peptide sequence: LDNILFDQGR, peptide start residue: 163)",0.31
7,"UniProt P37330 (peptide sequence: AASDLIFLGVK, peptide start residue: 692)",-0.761
8,"UniProt P42589 (peptide sequence: TVVVLCNLQK, peptide start residue: 62)",0.0314
9,"UniProt P37326 (peptide sequence: EWYEHKK, peptide start residue: 99)",0.526
10,"UniProt P39265 (peptide sequence: KGIEDEAK, peptide start residue: 44)",0.403
11,"UniProt P36881 (peptide sequence: AQEILDALEKK, peptide start residue: 13)",-0.629
12,"UniProt P34749 (peptide sequence: SLRELGVK, peptide start residue: 194)",0.082
